Test results: publication PMC5686142

Key:
[1] = biological target: T1, ORF6 (Enc34 SSB, DUF2815) (Enterobacter cancerogenus bacteriophage Enc34) (UniProt H6WYG2); assay: EMSA; settings: DNA:protein 1:156 to 1:2500, EMSA: 5 uL of 140 nM DNA + 5 uL protein (two-fold dilutions from 350 uM stock), room temperature 20 min, 1% agarose, 1x TAE, recombinant protein, residues 2-200, probe letters rebuilt from the primers and the genome
T1 sequence (looked up): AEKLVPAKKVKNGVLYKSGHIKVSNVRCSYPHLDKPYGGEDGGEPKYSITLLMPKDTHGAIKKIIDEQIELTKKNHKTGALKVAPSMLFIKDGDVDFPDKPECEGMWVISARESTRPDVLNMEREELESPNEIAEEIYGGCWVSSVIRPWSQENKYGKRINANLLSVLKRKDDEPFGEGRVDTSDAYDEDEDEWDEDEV

[2] = biological target: T2, ORF6ΔC del179-199 (Enterobacter cancerogenus bacteriophage Enc34) (UniProt H6WYG2); assay: X-ray crystallography; settings: 1.56 Å, protein:DNA 1:2, 0.1 M HEPES pH 7.0, 30% Jeffamine ED-2001; recombinant protein; residues 2-179; single-stranded DNA
T2 sequence (looked up): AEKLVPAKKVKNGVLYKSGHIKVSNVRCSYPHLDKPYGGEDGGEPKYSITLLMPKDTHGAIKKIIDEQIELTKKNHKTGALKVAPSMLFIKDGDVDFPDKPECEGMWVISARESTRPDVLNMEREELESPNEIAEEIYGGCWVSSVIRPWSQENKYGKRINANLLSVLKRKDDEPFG

Question: Does “CTCACAAGGTATCTTAGAAACTATCGCGGCTAACCAGACTCGCATCATCACTCTGCTGGAAGGTCTGCAACTGAACGCCCCGGCATCTTCTGACGCTGGCGAAACCGCCACTACCAAAACCACCGCTAAAAAGAACACCAAGGCTAAAGCGGAAGAAAAGGTGAAGCCGACTCATACCAAAGATGAAGTCGTTGCAGCGGTAGTTGCGGTTAAAGACGCTTTCGGCGCTCCGGCAGCTAAAGCCATCACCGGACAATTCGGTCTTGCTAAAATCGCAGAAGCGAAAGAAGACCAGTTCGACGCTATCTTCGACGCATGTCAGGAAAAACTGGCAGAAGCGGATAACGACGCAGGCGAAGAAGAAGAAGTTTAATCGCCTAAACGGTATTGCGGCTCCCTCCGGGGGGCCGTTTTTCTCAGAGGTAGCTATGAAAAAATTTCCTAAATTCAGCGTTATGACGGCGGGCGGAATGATCCCTGTAGTCACTTTTTCTGAATTCAGCCGTAACATCGGCGGTCTTGAGGTTCTTTTCAGAGTTACTTCGCCACTCAGCCCAAGCGTTGGAGCGTTAGTGTTAACCCACGTCGAAACAACGCGGCTAGTCGGTAAGGTGGAGTTTCTAGACATCGCGAAGACACGCGATAGCCTATTCGTAAATAATTATGAAAAGGCCGGGAATAGAGTTTTGAACCGAATATTAAGGGACGTTGGAGATGATAGATTCGTCAAAGCCGTCAAAAGGTACTCGTAACTTAAGCAC (double strand) [~750 bp dsDNA fragment]” bind [1]?
Answer: Result: no binding

Question: Does “CTCACAAGGTATCTTAGAAACTATCGCGGCTAACCAGACTCGCATCATCACTCTGCTGGAAGGTCTGCAACTGAACGCCCCGGCATCTTCTGACGCTGGCGAAACCGCCACTACCAAAACCACCGCTAAAAAGAACACCAAGGCTAAAGCGGAAGAAAAGGTGAAGCCGACTCATACCAAAGATGAAGTCGTTGCAGCGGTAGTTGCGGTTAAAGACGCTTTCGGCGCTCCGGCAGCTAAAGCCATCACCGGACAATTCGGTCTTGCTAAAATCGCAGAAGCGAAAGAAGACCAGTTCGACGCTATCTTCGACGCATGTCAGGAAAAACTGGCAGAAGCGGATAACGACGCAGGCGAAGAAGAAGAAGTTTAATCGCCTAAACGGTATTGCGGCTCCCTCCGGGGGGCCGTTTTTCTCAGAGGTAGCTATGAAAAAATTTCCTAAATTCAGCGTTATGACGGCGGGCGGAATGATCCCTGTAGTCACTTTTTCTGAATTCAGCCGTAACATCGGCGGTCTTGAGGTTCTTTTCAGAGTTACTTCGCCACTCAGCCCAAGCGTTGGAGCGTTAGTGTTAACCCACGTCGAAACAACGCGGCTAGTCGGTAAGGTGGAGTTTCTAGACATCGCGAAGACACGCGATAGCCTATTCGTAAATAATTATGAAAAGGCCGGGAATAGAGTTTTGAACCGAATATTAAGGGACGTTGGAGATGATAGATTCGTCAAAGCCGTCAAAAGGTACTCGTAACTTAAGCAC [~750 nt ssDNA fragment]” bind ([1]; single-stranded DNA)?
Answer: Result: binds

Question: Does “TTTTTTTTTTTTTTTTTTTTTTTTTTTTTTTTTTT [(dT)35]” bind [2]?
Answer: Result: binds

For part of these data: A negative result means that nothing was seen under these conditions. Where a protein sequence is shown, tags need not be part of it. For part of these data: Construct, isoform or probe ends are uncertain for at least one entry.
